Taken from: PubChem BioAssay AID504793 (Drosophila RNAi Screening Center, 2011)
Assay: 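Whole-genome screen for parts of the DNA damage checkpoint at G2/M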 (primary screen). Cell system: Drosophila S2R+ cells. Knock-down reagent: long dsRNA against Drosophila genes, about 0.25 µg dsRNA per well. Time to read-out: 4 days of dsRNA, then 4 hours of drug before read-out. Conditions: doxorubicin 0.5 µM for 4 hours to cause double-strand breaks, in cells also given a low, harmless dose of dsRNA against nbs to sensitise the assay. Detection: 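Mitotic index as the number of phospho-histone H3-positive cells in each well following doxorubicin, given as raw counts without normalisation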. Reading the numbers: mitotic cells: higher = more cells in mitosis, weaker G2 arrest. Rule for the call: 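Genes are called active only when high mitotic counts were reproduced with independent dsRNAs and mitosis was checked for delay without damage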. Calls: active = confirmed in follow-up tests; inactive = not confirmed.
The deposit covers about 23,000 reagents; below is an unselected part of those with a known target gene and a result. In the full data, 62 (0.27%) got an active call. 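Calls come from follow-up tests whose scores are not deposited, so confirmed genes may have low counts here; counts are not normalised per plate.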 The raw values are shown without normalisation. A plus sign joins genes that one reagent is predicted to hit.

target gene | dsRNA | mitotic cells, replicate 1 | mitotic cells, replicate 2 | Outcome
CG13404 | DRSC19536 | 14 | – | inactive
rump (rumpelstiltskin) | DRSC16480 | 9 | – | inactive
Alp10 (Alkaline phosphatase 10) | DRSC09749 | 3 | – | inactive
Alp10 (Alkaline phosphatase 10) | DRSC29230 | 9 | – | inactive
CG3163 | DRSC04341 | 6 | – | inactive
CG3163 | DRSC28242 | 8 | – | inactive
CG11444 | DRSC17784 | 4 | – | inactive
CG11444 | DRSC24827 | 7 | – | inactive
Gr59c (Gustatory receptor 59c) | DRSC04185 | 2 | – | inactive
cg (combgap) | DRSC23142 | 7 | – | inactive
cg (combgap) | DRSC28656 | 3 | – | inactive
CheB38c (Chemosensory protein B 38c) | DRSC02389 | 8 | – | inactive
lncRNA:iab4 (long non-coding RNA:iab4) | DRSC22331 | 8 | – | inactive
lncRNA:iab4 (long non-coding RNA:iab4) | DRSC26703 | 2 | – | inactive
TwdlT (TweedleT) | DRSC21540 | 4 | – | inactive
kek6 (kekkon 6) | DRSC15299 | 7 | – | inactive
kek6 (kekkon 6) | DRSC23759 | 6 | – | inactive
Ste:CG33238 + Ste:CG33241 + Ste:CG33236 + 11 more | DRSC19004 | 72 | – | inactive
Ste:CG33238 + Ste:CG33241 + Ste:CG33236 + 11 more | DRSC21260 | 5 | – | inactive
CG4066 | DRSC15541 | 1 | – | inactive
CG4066 | DRSC29744 | 11 | – | inactive
Ssadh (Succinic semialdehyde dehydrogenase) | DRSC15621 | 6 | – | inactive
Ssadh (Succinic semialdehyde dehydrogenase) | DRSC27782 | 10 | – | inactive
sbb (scribbler) | DRSC05723 | 3 | – | inactive
sbb (scribbler) | DRSC07676 | 4 | – | inactive
sbb (scribbler) | DRSC28911 | 2 | – | inactive
Dmtn (Dementin) | DRSC12513 | 9 | – | inactive
Dmtn (Dementin) | DRSC28385 | 5 | – | inactive
CG15773 | DRSC18079 | 6 | – | inactive
Nbr (Nibbler) | DRSC03166 | 5 | – | inactive
Polr3I (RNA polymerase III subunit I) | DRSC19922 | 3 | – | inactive
His3.3A (Histone H3.3A) | DRSC03343 | 10 | – | inactive
His3.3A (Histone H3.3A) | DRSC25053 | 6 | – | inactive
CG17742 (retired record) | DRSC25787 | 4 | – | inactive
PIG-C (Phosphatidylinositol glycan anchor biosynthesis class C) | DRSC08241 | 10 | – | inactive
CG31788 | DRSC01630 | 7 | – | inactive
CG3368 | DRSC15485 | 9 | – | inactive
kmg (kumgang) | DRSC02829 | 5 | – | inactive
Naa20B (N(alpha)-acetyltransferase 20 B) | DRSC21442 | 6 | – | inactive
Naa20B (N(alpha)-acetyltransferase 20 B) | DRSC27158 | 5 | – | inactive
CG42382 | DRSC07671 | 9 | – | inactive
Toll-9 | DRSC11776 | 2 | – | inactive
Atg10 (Autophagy-related 10) | DRSC06172 | 6 | – | inactive
Rop (Ras opposite) | DRSC08693 | 4 | – | inactive
Rop (Ras opposite) | DRSC26024 | 9 | – | inactive
CG13707 | DRSC08316 | 5 | – | inactive
CG5539 | DRSC04510 | 5 | – | inactive
CG43996 | DRSC19456 | 7 | – | inactive
CG43996 | DRSC19457 | 8 | – | inactive
Rpn8 (Regulatory particle non-ATPase 8) | DRSC04624 | 37 | – | inactive
Rpn8 (Regulatory particle non-ATPase 8) | DRSC29897 | 41 | – | inactive
Txl (Thioredoxin-like) | DRSC11310 | 4 | – | inactive
Acsx4 (Acyl-CoA synthetase X4) | DRSC14311 | 17 | – | inactive
Acsx4 (Acyl-CoA synthetase X4) | DRSC27646 | 12 | – | inactive
CG13428 | DRSC06390 | 5 | – | inactive
t (tan) | DRSC17815 | 16 | – | inactive
t (tan) | DRSC29460 | 3 | – | inactive
Rab9Fb (Rab at 9Fb) | DRSC19854 | 10 | – | inactive
CG5866 | DRSC15900 | – | – | inactive
CG32221 | DRSC09638 | 2 | – | inactive
Kul (Kuzbanian-like) | DRSC15404 | 9 | – | inactive
Kul (Kuzbanian-like) | DRSC25888 | 6 | – | inactive
RpS28a (Ribosomal protein S28a) | DRSC15064 | 10 | – | inactive
CG1504 | DRSC20513 | 5 | – | inactive
CG1504 | DRSC26901 | 5 | – | inactive
CG3713 | DRSC18648 | 12 | – | inactive
CG2147 | DRSC18211 | 8 | – | inactive
mahj (mahjong) | DRSC04053 | 12 | – | inactive
CG34041 | DRSC22276 | 14 | – | inactive
CG34041 | DRSC30023 | 11 | – | inactive
CG13217 | DRSC06339 | 8 | – | inactive
CG15120 | DRSC06542 | 9 | – | inactive
l(3)L1231 (lethal (3) L1231) | DRSC16323 | 6 | – | inactive
CG8838 | DRSC00712 | 4 | – | inactive
CG8838 | DRSC27117 | 4 | – | inactive
CG6733 | DRSC16103 | 12 | – | inactive
CG3402 | DRSC08567 | 3 | – | inactive
dl (dorsal) | DRSC03521 | 8 | – | inactive
dl (dorsal) | DRSC29023 | 6 | – | inactive
CG32365 | DRSC10040 | 5 | – | inactive
Cog1 (Component of oligomeric golgi complex 1) | DRSC15661 | 4 | – | inactive
CG8089 | DRSC07074 | 5 | – | inactive
CG31459 | DRSC13380 | 5 | – | inactive
Shal (Shaker cognate l) | DRSC09625 | 9 | – | inactive
Shal (Shaker cognate l) | DRSC11283 | 4 | – | inactive
Cad88C (Cadherin 88C) | DRSC15486 | 6 | – | inactive
Cad88C (Cadherin 88C) | DRSC26126 | 8 | – | inactive
hui (hase und igel) | DRSC05977 | 2 | – | inactive
hui (hase und igel) | DRSC28947 | 9 | – | inactive
ND-B14 (NADH dehydrogenase (ubiquinone) B14 subunit) | DRSC07029 | 3 | – | inactive
ND-B14 (NADH dehydrogenase (ubiquinone) B14 subunit) | DRSC28660 | 5 | – | inactive
CG3604 | DRSC00618 | 6 | – | inactive
VepD (Ventrally-expressed protein D) | DRSC22318 | 8 | – | inactive
VepD (Ventrally-expressed protein D) | DRSC27653 | 4 | – | inactive
CG14265 | DRSC18591 | 16 | – | inactive
CG14265 | DRSC29212 | 6 | – | inactive
Dscam3 (Down syndrome cell adhesion molecule 3) | DRSC14525 | 12 | – | inactive
Dscam3 (Down syndrome cell adhesion molecule 3) | DRSC16376 | 4 | – | inactive
Polr2E (RNA polymerase II, I and III subunit E) | DRSC06100 | 20 | – | active
fru (fruitless) | DRSC16953 | 7 | 2 | inactive
fru (fruitless) | DRSC24960 | 6 | – | inactive
Datp (Diadenosine tetraphosphatase) | DRSC01102 | 9 | – | inactive
CG9522 | DRSC20197 | 8 | – | inactive
CG1275 | DRSC08294 | 10 | – | inactive
wa-cup (walker cup) | DRSC12511 | 2 | – | inactive
Gpat4 (Glycerol-3-phosphate acyltransferase 4) | DRSC04345 | 3 | – | inactive
Drp1 (Dynamin related protein 1) | DRSC00574 | 11 | – | inactive
Drp1 (Dynamin related protein 1) | DRSC26413 | 2 | – | inactive
Tlk (Tousled-like kinase) | DRSC17731 | 9 | – | inactive
Tlk (Tousled-like kinase) | DRSC22924 | 13 | – | inactive
Tlk (Tousled-like kinase) | DRSC22926 | 17 | – | inactive
Tlk (Tousled-like kinase) | DRSC23163 | 13 | – | inactive
CG31267 | DRSC15748 | 9 | – | inactive
CG30479 | DRSC06735 | 10 | – | inactive
CG30479 | DRSC28843 | 4 | – | inactive
Cks30A (Cyclin-dependent kinase subunit 30A) | DRSC03292 | 8 | – | inactive
Act79B (Actin 79B) | DRSC11604 | 2 | – | inactive
Act79B (Actin 79B) | DRSC25023 | 6 | – | inactive
Odc1 (Ornithine decarboxylase 1) | DRSC07482 | 9 | – | inactive
Odc1 (Ornithine decarboxylase 1) | DRSC29610 | 5 | – | inactive
CG31627 | DRSC22143 | 9 | – | inactive
CG13085 | DRSC02189 | 3 | – | inactive
CG13085 | DRSC28099 | 6 | – | inactive
Naa20A (N(alpha)-acetyltransferase 20 A) | DRSC19579 | 9 | – | inactive
mldr (mulder) | DRSC18100 | 12 | – | inactive
mldr (mulder) | DRSC27990 | 4 | – | inactive
Kr-h1 (Kruppel homolog 1) | DRSC00908 | 3 | – | inactive
Kr-h1 (Kruppel homolog 1) | DRSC03355 | 11 | – | inactive
Kr-h1 (Kruppel homolog 1) | DRSC23629 | 10 | – | inactive
gry (gryzun) | DRSC08028 | 4 | – | inactive
gry (gryzun) | DRSC08518 | 10 | – | inactive
CG32085 | DRSC10138 | 4 | – | inactive
CG32085 | DRSC10139 | 5 | – | inactive
CG32085 | DRSC10576 | 5 | – | inactive
p38a (p38a MAP kinase) | DRSC16743 | 15 | – | inactive
CG1146 | DRSC08189 | 1 | – | inactive
CG1146 | DRSC25486 | 6 | – | inactive
CG12895 | DRSC06210 | 5 | – | inactive
CG12895 | DRSC25590 | 5 | – | inactive
PGRP-SB1 (Peptidoglycan recognition protein SB1) | DRSC11090 | 7 | – | inactive
